Measured values reported in publication doi:10.1101/2022.09.10.507283.
Residue numbers refer to the chain shown, from its start. Names and notes keep the numbering of the source. Read-outs that look alike come from different tables or passages of the source. These are yes or no findings as the source states them, for the method shown. In cells and extracts the contact can be indirect. Some binding calls cover weakened binding; strength is not graded here. For some assays here: Tags and fused reporters may be left off the sequences shown. Values belong to the molecule of their own block, whether it stands above or below them.

Amino acid sequences for entries named in this document (tags omitted). A change or cut given only in a name is not applied to a line headed by its entry.
UniProt P61586, whole entry, looked up, stated change not applied: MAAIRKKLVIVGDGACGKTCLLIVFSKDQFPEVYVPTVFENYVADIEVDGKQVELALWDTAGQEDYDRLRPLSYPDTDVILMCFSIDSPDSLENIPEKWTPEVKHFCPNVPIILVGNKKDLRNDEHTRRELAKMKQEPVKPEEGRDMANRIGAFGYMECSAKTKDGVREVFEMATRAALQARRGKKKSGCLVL
UniProt Q07157, whole entry: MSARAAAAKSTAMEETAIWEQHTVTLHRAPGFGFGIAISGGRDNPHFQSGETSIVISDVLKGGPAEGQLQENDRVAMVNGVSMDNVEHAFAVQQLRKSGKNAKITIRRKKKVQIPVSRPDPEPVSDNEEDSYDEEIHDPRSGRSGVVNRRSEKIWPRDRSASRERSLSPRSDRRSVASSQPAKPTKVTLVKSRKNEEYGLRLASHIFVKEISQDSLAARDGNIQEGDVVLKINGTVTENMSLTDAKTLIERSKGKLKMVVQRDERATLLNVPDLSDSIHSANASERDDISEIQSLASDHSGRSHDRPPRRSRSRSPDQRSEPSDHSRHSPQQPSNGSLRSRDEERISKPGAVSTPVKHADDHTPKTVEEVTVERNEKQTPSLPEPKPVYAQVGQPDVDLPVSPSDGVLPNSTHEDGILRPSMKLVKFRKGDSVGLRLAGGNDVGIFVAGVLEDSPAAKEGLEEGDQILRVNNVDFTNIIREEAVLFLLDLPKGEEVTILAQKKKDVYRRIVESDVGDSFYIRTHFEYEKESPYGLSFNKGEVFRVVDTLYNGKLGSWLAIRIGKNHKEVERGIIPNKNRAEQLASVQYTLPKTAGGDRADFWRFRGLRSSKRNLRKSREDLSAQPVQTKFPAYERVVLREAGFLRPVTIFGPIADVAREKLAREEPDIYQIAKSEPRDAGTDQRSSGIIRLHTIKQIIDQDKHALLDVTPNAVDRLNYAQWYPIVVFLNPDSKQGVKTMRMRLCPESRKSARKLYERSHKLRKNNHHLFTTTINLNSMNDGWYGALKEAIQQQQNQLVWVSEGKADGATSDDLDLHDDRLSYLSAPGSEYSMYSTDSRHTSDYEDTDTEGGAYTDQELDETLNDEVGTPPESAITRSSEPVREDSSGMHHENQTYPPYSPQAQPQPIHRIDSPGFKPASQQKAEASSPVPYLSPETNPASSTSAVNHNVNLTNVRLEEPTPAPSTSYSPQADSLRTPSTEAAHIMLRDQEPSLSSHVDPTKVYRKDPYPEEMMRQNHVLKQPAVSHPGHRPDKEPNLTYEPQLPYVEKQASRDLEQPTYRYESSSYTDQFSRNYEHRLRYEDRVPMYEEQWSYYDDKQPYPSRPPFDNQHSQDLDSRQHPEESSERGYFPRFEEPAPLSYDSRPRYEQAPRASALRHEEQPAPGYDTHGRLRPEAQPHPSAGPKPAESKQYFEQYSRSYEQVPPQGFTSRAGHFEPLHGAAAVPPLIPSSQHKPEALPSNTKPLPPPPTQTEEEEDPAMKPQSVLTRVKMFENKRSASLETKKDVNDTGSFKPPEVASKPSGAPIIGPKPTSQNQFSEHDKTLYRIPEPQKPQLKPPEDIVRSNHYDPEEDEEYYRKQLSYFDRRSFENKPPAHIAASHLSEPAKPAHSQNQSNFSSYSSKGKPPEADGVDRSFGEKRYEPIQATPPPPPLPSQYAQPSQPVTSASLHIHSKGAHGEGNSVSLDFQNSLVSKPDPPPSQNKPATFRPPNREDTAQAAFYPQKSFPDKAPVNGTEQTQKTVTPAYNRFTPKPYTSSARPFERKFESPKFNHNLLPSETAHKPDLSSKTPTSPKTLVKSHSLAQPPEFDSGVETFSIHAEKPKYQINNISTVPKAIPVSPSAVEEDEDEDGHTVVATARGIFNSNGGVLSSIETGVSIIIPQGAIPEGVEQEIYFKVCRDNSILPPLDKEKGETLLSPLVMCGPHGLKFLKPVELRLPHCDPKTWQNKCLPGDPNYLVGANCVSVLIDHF

Tests used:
[1] = molecular target: T1, flag-tagged ARHGEF18 (Arhgef18-HA/FLAG, wild type) (human) (UniProt Q6ZSZ5); assay: co-IP
T1 sequence: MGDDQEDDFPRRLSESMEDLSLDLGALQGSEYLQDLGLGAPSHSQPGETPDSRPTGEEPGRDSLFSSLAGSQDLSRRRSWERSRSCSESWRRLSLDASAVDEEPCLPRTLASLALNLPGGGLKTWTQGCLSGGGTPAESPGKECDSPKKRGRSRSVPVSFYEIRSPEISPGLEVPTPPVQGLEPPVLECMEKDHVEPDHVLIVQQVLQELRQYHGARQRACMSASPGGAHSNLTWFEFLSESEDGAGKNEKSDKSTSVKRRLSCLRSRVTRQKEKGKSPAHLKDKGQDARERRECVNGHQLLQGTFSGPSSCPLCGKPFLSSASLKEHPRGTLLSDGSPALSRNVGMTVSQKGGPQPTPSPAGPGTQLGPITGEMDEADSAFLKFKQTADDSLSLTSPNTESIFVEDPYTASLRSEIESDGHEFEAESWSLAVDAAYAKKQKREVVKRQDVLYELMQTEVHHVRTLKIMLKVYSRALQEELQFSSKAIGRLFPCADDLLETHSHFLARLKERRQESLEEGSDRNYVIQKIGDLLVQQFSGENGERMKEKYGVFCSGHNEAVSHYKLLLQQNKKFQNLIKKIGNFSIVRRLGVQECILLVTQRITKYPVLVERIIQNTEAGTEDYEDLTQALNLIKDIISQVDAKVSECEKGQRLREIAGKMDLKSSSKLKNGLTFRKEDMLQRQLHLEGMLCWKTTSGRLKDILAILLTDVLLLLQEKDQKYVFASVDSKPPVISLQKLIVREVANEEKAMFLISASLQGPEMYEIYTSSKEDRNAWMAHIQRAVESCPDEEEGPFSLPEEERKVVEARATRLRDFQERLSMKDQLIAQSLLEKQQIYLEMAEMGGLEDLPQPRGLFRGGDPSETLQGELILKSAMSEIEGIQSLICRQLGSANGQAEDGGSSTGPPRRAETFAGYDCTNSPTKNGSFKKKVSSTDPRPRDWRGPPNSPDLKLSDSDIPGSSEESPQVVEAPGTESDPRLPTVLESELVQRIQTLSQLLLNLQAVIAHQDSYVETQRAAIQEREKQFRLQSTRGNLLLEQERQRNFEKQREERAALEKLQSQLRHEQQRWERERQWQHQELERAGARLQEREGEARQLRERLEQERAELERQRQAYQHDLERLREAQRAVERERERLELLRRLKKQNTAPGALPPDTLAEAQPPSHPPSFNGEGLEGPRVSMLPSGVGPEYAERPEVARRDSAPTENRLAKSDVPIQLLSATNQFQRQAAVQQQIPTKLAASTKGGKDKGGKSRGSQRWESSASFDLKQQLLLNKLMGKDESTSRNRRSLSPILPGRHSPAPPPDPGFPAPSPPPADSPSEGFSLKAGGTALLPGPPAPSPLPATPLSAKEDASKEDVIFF

[2] = molecular target: GST-RhoA^G17A (nucleotide-free RhoA mutant) (UniProt P61586); assay: pull-down
[3] = molecular target: T2, VE-cadherin (endogenous, HUVEC) (human (endogenous in HUVEC)), P33151; assay: co-IP; conditions: remark: other sources report otherwise
T2 chain: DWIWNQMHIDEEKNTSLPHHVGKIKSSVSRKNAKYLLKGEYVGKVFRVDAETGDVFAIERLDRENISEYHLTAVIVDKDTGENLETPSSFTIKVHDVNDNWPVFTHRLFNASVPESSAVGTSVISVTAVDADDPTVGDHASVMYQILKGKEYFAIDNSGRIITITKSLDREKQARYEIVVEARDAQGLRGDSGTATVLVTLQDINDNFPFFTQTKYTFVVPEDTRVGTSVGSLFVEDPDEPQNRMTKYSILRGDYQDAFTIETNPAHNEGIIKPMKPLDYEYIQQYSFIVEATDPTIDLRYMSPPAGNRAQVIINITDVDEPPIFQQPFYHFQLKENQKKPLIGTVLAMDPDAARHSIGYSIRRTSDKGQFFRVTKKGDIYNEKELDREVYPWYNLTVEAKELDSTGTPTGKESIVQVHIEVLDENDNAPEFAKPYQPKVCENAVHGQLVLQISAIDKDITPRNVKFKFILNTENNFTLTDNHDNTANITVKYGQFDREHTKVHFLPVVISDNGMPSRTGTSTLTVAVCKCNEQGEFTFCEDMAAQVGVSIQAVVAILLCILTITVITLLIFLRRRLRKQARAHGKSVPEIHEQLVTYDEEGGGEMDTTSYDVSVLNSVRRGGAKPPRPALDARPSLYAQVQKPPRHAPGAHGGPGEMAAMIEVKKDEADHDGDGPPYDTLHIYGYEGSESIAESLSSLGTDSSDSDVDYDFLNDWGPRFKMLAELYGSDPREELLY

[4] = molecular target: T1, flag-tagged ARHGEF18 (Arhgef18-HA/FLAG, wild type) (human); assay: co-IP; remark: listed apart in the source

binding [1]: binds
Molecule: ZO-1 (endogenous, HUVEC) (from UniProt Q07157 1-1748)

binding [2]: binds
B1: WT-ARHGEF18 (exogenous wild type used in the RHOA^G17A pull-down) (protein, UniProt Q6ZSZ5-4 1-1361)
chain: T1 sequence

binding [2]: no binding
B2: ARHGEF18^Y606A (Arhgef18-HA/FLAG_shArhgef18.6, GEF mutant) (protein, UniProt Q6ZSZ5-4 1-1361)
chain: T1 sequence with Y606A

binding [3]: binds
B3: β-catenin (endogenous, HUVEC), P35222 1-781 (protein)
chain: MATQADLMELDMAMEPDRKAAVSHWQQQSYLDSGIHSGATTTAPSLSGKGNPEEEDVDTSQVLYEWEQGFSQSFTQEQVADIDGQYAMTRAQRVRAAMFPETLDEGMQIPSTQFDAAHPTNVQRLAEPSQMLKHAVVNLINYQDDAELATRAIPELTKLLNDEDQVVVNKAAVMVHQLSKKEASRHAIMRSPQMVSAIVRTMQNTNDVETARCTAGTLHNLSHHREGLLAIFKSGGIPALVKMLGSPVDSVLFYAITTLHNLLLHQEGAKMAVRLAGGLQKMVALLNKTNVKFLAITTDCLQILAYGNQESKLIILASGGPQALVNIMRTYTYEKLLWTTSRVLKVLSVCSSNKPAIVEAGGMQALGLHLTDPSQRLVQNCLWTLRNLSDAATKQEGMEGLLGTLVQLLGSDDINVVTCAAGILSNLTCNNYKNKMMVCQVGGIEALVRTVLRAGDREDITEPAICALRHLTSRHQEAEMAQNAVRLHYGLPVVVKLLHPPSHWPLIKATVGLIRNLALCPANHAPLREQGAIPRLVQLLVRAHQDTQRRTSMGGTQQQFVEGVRMEEIVEGCTGALHILARDVHNRIVIRGLNTIPLFVQLLYSPIENIQRVAAGVLCELAQDKEAAEAIEAEGATAPLTELLHSRNEGVATYAAAVLFRMSEDKPQDYKKRLSVELTSSLFRTEPMAWNETADLGLDIGAQGEPLGYRQDDPSYRSFHSGGYGQDALGMDPMMEHEMGGHHPGADYPVDGLPDLGHAQDLMDGLPPGDSNQLAWFDTDL

binding [4]: no binding
B4: VE-cadherin (endogenous, HUVEC) (protein, UniProt P33151 48-784)
chain: T2 chain
